Values from PubChem BioAssay AID493246 (Drosophila RNAi Screening Center, 2011)
The screen tested about 21,000 reagents; this is a random part of those with a known target gene and a result. Over the whole deposit, 429 (2%) were called active. 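Values are raw and not normalised between plates; calls rest on per-plate z-scores that were not deposited.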 Unmarked entries are inactive. Names joined by + are all predicted targets of the reagent. Reagent sequences are not shown. The record does not give: the amount of reagent, the time to read-out.

- Purpose: 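Identify essential fly genes by loss of cell viability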 (primary screen)
- Cells: Drosophila Kc and S2R+ cells
- Reagents: long dsRNA against Drosophila genes
- Measured: 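Raw, unnormalised count of remaining cells in each well; per-plate z-scores of cell number underlie the calls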
- Direction: Kc cell number and S2R+ cell number: higher = more cells remaining
- Call rule: 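Active when the per-plate z-score of cell number is 3 or more in the direction of fewer cells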

target | DRSC id | Kc cell number, rep 1 | Kc cell number, rep 2 | S2R+ cell number, rep 1 | S2R+ cell number, rep 2
X11Lbeta | DRSC18156 | 1.63e6 | 1.69e6 | 9.80e5 | 1.15e6
X11Lbeta | DRSC18158 | 1.55e6 | 1.56e6 | 1.04e6 | 1.17e6
Fatp3 (Fatty acid transport protein 3) | DRSC04366 | 1.43e6 | 1.54e6 | 1.28e6 | 1.27e6
CycC (Cyclin C) | DRSC16619 | 1.65e6 | 1.65e6 | 1.24e6 | 1.27e6
CG34187 (retired record) | DRSC05543 | 1.47e6 | 1.44e6 | 1.01e6 | 1.16e6
Ythdf (YTH N6-methyladenosine RNA binding protein) | DRSC16036 | 1.46e6 | 1.47e6 | 1.02e6 | 1.04e6
Ythdf (YTH N6-methyladenosine RNA binding protein) | DRSC16037 | 1.46e6 | 1.52e6 | 9.62e5 | 1.05e6
CG9162 (retired record) | DRSC03151 | 1.25e6 | 1.37e6 | 6.58e5 | 9.98e5
CG11247 | DRSC11643 | 1.31e6 | 1.37e6 | 1.06e6 | 1.18e6
Syn2 (Syntrophin-like 2) | DRSC06902 | 1.51e6 | 1.55e6 | 1.21e6 | 1.36e6
Daao1 (D-amino acid oxidase 1) | DRSC06131 | 1.53e6 | 1.56e6 | 1.35e6 | 1.52e6
TP53INP (Tumor protein p53 inducible nuclear protein) | DRSC08178 | 1.26e6 | 1.42e6 | 1.04e6 | 1.14e6
CG2224 | DRSC15429 | 1.51e6 | 1.53e6 | 9.74e5 | 1.10e6
CG17944 | DRSC12572 | 1.53e6 | 1.67e6 | 1.25e6 | 1.31e6
Rab9 | DRSC03281 | 1.50e6 | 1.67e6 | 1.43e6 | 3.78e5
Mco4 (Multicopper oxidase 4) | DRSC20061 | 1.47e6 | 1.47e6 | 1.04e6 | 1.11e6
SmydA-2 (SET and MYND domain containing, arthropod-specific, member 2) | DRSC10296 | 1.78e6 | 1.89e6 | 1.41e6 | 1.58e6
Cpr47Ef (Cuticular protein 47Ef) | DRSC06336 | 1.71e6 | 1.76e6 | 1.23e6 | 1.34e6
Dbp45A (DEAD box protein 45A) | DRSC07395 | 1.37e6 | 1.44e6 | 1.14e6 | 1.24e6
Muc18B (Mucin 18B) | DRSC20064 | 1.50e6 | 1.49e6 | 1.05e6 | 1.13e6
CG10631 | DRSC02081 | 1.42e6 | 1.45e6 | 1.39e6 | 1.41e6
EndoB (Endophilin B) | DRSC07345 | 1.46e6 | 1.56e6 | 9.56e5 | 1.17e6
Mctp (Multiple C2 domain and transmembrane region protein) | DRSC06510 | 1.80e6 | 1.77e6 | 1.32e6 | 1.55e6
CG13920 | DRSC08389 | 1.33e6 | 1.39e6 | 1.16e6 | 1.21e6
PpV (Protein phosphatase V) | DRSC18700 | 1.43e6 | 1.44e6 | 1.02e6 | 1.13e6
GATAd | DRSC02803 | 1.40e6 | 1.44e6 | 1.20e6 | 1.34e6
Ddrgk1 (DDRGK domain containing 1) | DRSC15897 | 1.55e6 | 1.65e6 | 1.21e6 | 1.29e6
Amy-d + Amy-p | DRSC21242 | 1.47e6 | 1.48e6 | 1.07e6 | 1.19e6
Ate1 (Arginyltransferase 1) | DRSC05925 | 1.54e6 | 1.47e6 | 1.17e6 | 1.22e6
CG13560 | DRSC04198 | 1.70e6 | 1.74e6 | 1.26e6 | 1.45e6
CG4332 | DRSC19890 | 5.33e5 | – | 9.03e5 | –
Trc8 (TRC8 ring finger protein) | DRSC15437 | 5.29e5 | – | 7.61e5 | –
ppk19 (pickpocket 19) | DRSC15321 | 1.56e6 | 1.58e6 | 1.01e6 | 1.11e6
CSN3 (COP9 signalosome subunit 3) | DRSC11859 | 1.37e6 | 1.44e6 | 9.25e5 | 1.06e6

8 entries from above in another layout.
{"target":"CycC (Cyclin C)","DRSC id":"DRSC16619","Kc cell number, rep 1":1.65e6,"Kc cell number, rep 2":1.65e6,"S2R+ cell number, rep 1":1.24e6,"S2R+ cell number, rep 2":1.27e6}
{"target":"CG34187 (retired record)","DRSC id":"DRSC05543","Kc cell number, rep 1":1.47e6,"Kc cell number, rep 2":1.44e6,"S2R+ cell number, rep 1":1.01e6,"S2R+ cell number, rep 2":1.16e6}
{"target":"Ythdf (YTH N6-methyladenosine RNA binding protein)","DRSC id":"DRSC16036","Kc cell number, rep 1":1.46e6,"Kc cell number, rep 2":1.47e6,"S2R+ cell number, rep 1":1.02e6,"S2R+ cell number, rep 2":1.04e6}
{"target":"Ythdf (YTH N6-methyladenosine RNA binding protein)","DRSC id":"DRSC16037","Kc cell number, rep 1":1.46e6,"Kc cell number, rep 2":1.52e6,"S2R+ cell number, rep 1":9.62e5,"S2R+ cell number, rep 2":1.05e6}
{"target":"CG9162 (retired record)","DRSC id":"DRSC03151","Kc cell number, rep 1":1.25e6,"Kc cell number, rep 2":1.37e6,"S2R+ cell number, rep 1":6.58e5,"S2R+ cell number, rep 2":9.98e5}
{"target":"CG11247","DRSC id":"DRSC11643","Kc cell number, rep 1":1.31e6,"Kc cell number, rep 2":1.37e6,"S2R+ cell number, rep 1":1.06e6,"S2R+ cell number, rep 2":1.18e6}
{"target":"Syn2 (Syntrophin-like 2)","DRSC id":"DRSC06902","Kc cell number, rep 1":1.51e6,"Kc cell number, rep 2":1.55e6,"S2R+ cell number, rep 1":1.21e6,"S2R+ cell number, rep 2":1.36e6}
{"target":"Daao1 (D-amino acid oxidase 1)","DRSC id":"DRSC06131","Kc cell number, rep 1":1.53e6,"Kc cell number, rep 2":1.56e6,"S2R+ cell number, rep 1":1.35e6,"S2R+ cell number, rep 2":1.52e6}

Next results follow:
target | DRSC id | Kc cell number, rep 1 | Kc cell number, rep 2 | S2R+ cell number, rep 1 | S2R+ cell number, rep 2
CG12546 | DRSC11676 | 1.45e6 | 1.44e6 | 1.12e6 | 1.28e6
CG32106 | DRSC09219 | 1.41e6 | 1.42e6 | 1.11e6 | 1.24e6
morgue (modifier of rpr and grim, ubiquitously expressed) | DRSC00264 | 1.24e6 | 1.26e6 | 8.84e5 | 9.07e5
CG17580 | DRSC06683 | 1.73e6 | 1.70e6 | 1.32e6 | 1.47e6
atos (atossa) | DRSC07318 | 1.56e6 | 1.59e6 | 1.27e6 | 1.40e6
sav (salvador) | DRSC14681 | 1.49e6 | 1.40e6 | 1.00e6 | 1.05e6
sav (salvador) | DRSC14682 | 1.43e6 | 1.39e6 | 9.71e5 | 1.07e6
CG31093 | DRSC15689 | 1.47e6 | 1.42e6 | 9.24e5 | 1.00e6
Z600 | DRSC11317 | 1.49e6 | 1.56e6 | 1.32e6 | 1.45e6
Ilp8 (Insulin-like peptide 8) | DRSC10076 | 1.60e6 | 1.90e6 | 1.36e6 | 1.50e6
CG11257 | DRSC06068 | 1.44e6 | 1.55e6 | 1.06e6 | 1.28e6
IntS8 (Integrator 8) | DRSC07417 | 1.15e6 | 1.20e6 | 1.03e6 | 1.13e6
Eig71Ek | DRSC11158 | 1.35e6 | 1.37e6 | 1.20e6 | 1.37e6
CG32750 | DRSC18848 | 1.52e6 | 1.59e6 | 1.07e6 | 1.23e6
RpL3 + CG6693 | DRSC16097 | 1.87e6 | 1.93e6 | 1.52e6 | 1.68e6
GstT3 (Glutathione S transferase T3) | DRSC20541 | 1.45e6 | 1.46e6 | 1.05e6 | 1.14e6
CG4617 | DRSC18377 | 5.52e5 | – | 9.02e5 | –
FANCI (Fanconi anemia complementation group I) | DRSC06416 | 1.49e6 | 1.56e6 | 1.26e6 | 1.29e6
ValRS-m (Valyl-tRNA synthetase, mitochondrial) | DRSC10535 | 1.47e6 | 1.74e6 | 1.16e6 | 1.23e6
CG14218 | DRSC19575 | 1.46e6 | 1.64e6 | 1.04e6 | 1.04e6
CG32982 | DRSC01059 | 1.18e6 | 1.25e6 | 7.84e5 | 9.21e5
CG32982 | DRSC02677 | 1.72e6 | 1.84e6 | 1.39e6 | 1.46e6
CG32982 | DRSC03268 | 1.48e6 | 1.50e6 | 1.09e6 | 1.24e6
CG32982 | DRSC03269 | 1.65e6 | 1.76e6 | 1.17e6 | 1.27e6
rtv (retroactive) | DRSC19541 | 5.14e5 | – | 8.12e5 | –
Arts + Apl | DRSC10349 | 1.28e6 | 1.42e6 | 1.36e6 | 1.43e6
idc (identity crisis) | DRSC15680 | 1.36e6 | 1.49e6 | 1.12e6 | 1.13e6
HnRNP-K (Heterogeneous nuclear ribonucleoprotein K) | DRSC07585 | 1.59e6 | 1.60e6 | 1.12e6 | 1.15e6
CG16734 | DRSC15143 | 1.66e6 | 1.79e6 | 1.37e6 | 1.45e6
beat-IV (beaten path IV) | DRSC14195 | 1.57e6 | 1.64e6 | 1.26e6 | 1.33e6
beat-IV (beaten path IV) | DRSC14673 | 1.63e6 | 1.61e6 | 9.67e5 | 1.10e6
CG10887 | DRSC14277 | 1.46e6 | 1.51e6 | 1.01e6 | 1.10e6
CG30371 | DRSC06835 | 1.44e6 | 1.61e6 | 1.22e6 | 1.37e6
CG12769 | DRSC06167 | 1.65e6 | 1.60e6 | 1.15e6 | 1.13e6
FIG4 (FIG4 phosphoinositide 5-phosphatase) | DRSC00515 | 8.84e5 | 1.31e6 | 5.16e5 | 6.39e5
CG14556 | DRSC14899 | 1.37e6 | 1.43e6 | 1.02e6 | 1.15e6
CG34436 | DRSC15164 | 1.61e6 | 1.65e6 | 1.04e6 | 1.15e6
RpS14b (Ribosomal protein S14b) | DRSC18711 | 8.41e5 (active) | 8.88e5 | 6.96e5 | 8.14e5
CG7333 | DRSC16229 | 1.34e6 | 1.52e6 | 1.01e6 | 9.73e5
CG13024 | DRSC09904 | 1.38e6 | 1.45e6 | 1.29e6 | 1.39e6
CG17574 | DRSC06681 | 1.29e6 | 1.57e6 | 1.07e6 | 1.19e6
